Results taken from PMC12040169 (PLOS Biology, 2025).
The other results are listed elsewhere or left out.

These compounds were tested on T1, CTL2-GFP (C. trachomatis L2/434/Bu, GFP-expressing). Details: bulk GFP, single well; 28.5 h, 10 µM; inhibitor.
T1 construct: L2/434/Bu, GFP-expressing
Set-up: species or system HeLa; Intracellular C. trachomatis growth in HeLa cells, bulk GFP fluorescence relative to DMSO

Structure (SMILES) | % of control remaining [%]
O=C(O)CCN1CCCCC1 [CBK012168C] | 116.765
CC(C)NC(=O)NC[C@H]1C[C@@H]2CCN1C[C@@H]2c1cc(-c2ccccc2)nn1C [CBK289097] | 116.174
O=C(N/N=C/c1ccc([N+](=O)[O-])cc1)c1ccccc1Cl [CBK261775] | 106.907
O=S(=O)(N1CCCCC1)N1CCCN(S(=O)(=O)N2CCCCC2)CC1 [CBK268939] | 141.156
COc1ccc(C[C@@]23CCC(=O)C[C@@H]2N(C)CC3)cc1 [CBK009720] | 113.983
Cc1ccc(-c2noc(CSc3nnc(-c4ccncc4)n3-c3ccc(C)cc3)n2)cc1 [CBK268879] | 96.3295
O=C(NCc1ccccc1)C1CCN(C(=O)Cc2c(F)cccc2Cl)CC1 [CBK297919] | 132.733
O=C(N[C@H]1CO[C@H]2[C@@H]1OC[C@@H]2n1nnnc1Oc1ccc(-n2ccnc2)cc1)c1ccco1 [CBK289486] | 155.619
CC(C)CNc1nnc(-c2ccccc2[N+](=O)[O-])s1 [CBK076755] | 123.414
C/C(=N/Nc1ccc([N+](=O)[O-])cc1[N+](=O)[O-])C1CC1 [CBK260921] | 117.485
Cc1ccccc1C(NC(=O)C1CCN(C(=O)c2ccccc2)CC1)c1ccccn1 (stereo not shown) [CBK059720] | 118.122
CC(C)COc1ccc(C(CC(=O)O)C(=O)O)cc1 (stereo not shown) [CBK286759] | 118.213
CN(C)CCNc1cc(-c2ccc3ccccc3c2)nc2ccccc12 [CBK278186B] | 16.7046
NC(=O)c1ccc2[nH]c(-c3cscn3)nc2c1 [CBK017800] | 122.831
Cc1cc(C(=O)CSc2nccc(C(F)(F)F)n2)c(C)n1C1CC1 [CBK305238] | 121.819
COc1cccc(-c2nnc(NC(=O)c3ccc4c(c3)OCCO4)o2)c1 [CBK287591] | 113.981
CCNC(=O)NCc1ccc(F)cc1 [CBK115581] | 86.5254
COc1ccc2nc(Nc3nc(-c4cccnc4)cs3)sc2c1 [CBK287482] | 156.764
Cc1nonc1CC(=O)N1C2CCC1CC(c1ccc(F)cc1)C2 (stereo not shown) [CBK283739] | 136.644
CC(=O)OC(COc1ccc2ccccc2c1Br)Cn1cnc2ccccc21 (stereo not shown) [CBK266083] | 86.6748
Cc1ccn2cc(-c3cc4c(ccc5ccccc54)oc3=O)nc2c1 [CBK287313] | 116.715
O=C1NCCC[C@@H]1NC(=O)[C@H]1CN(C(=O)c2ccccc2)CCN1C(=O)c1cccnc1 [CBK289634] | 131.137
NS(=O)(=O)c1ccc(CCNC2=CC(=O)CC(c3ccco3)C2)cc1 (stereo not shown) [CBK265852] | 165.274
Cc1cccn2c(=O)cc(CN3CCC(c4cn[nH]c4)CC3)nc12 [CBK305764] | 133.091
COc1ccc(S(=O)(=O)N(CC(=O)N2CCc3ccccc3C2)C2CCCCC2)cc1Cl [CBK268525] | 95.1489
CC(=O)Nc1ccc(CNC(=O)c2ccc(C(F)(F)F)cn2)cc1 [CBK252121] | 129.902
NCc1cnc2c(c1)CCC2 [CBK018584G] | 99.8781

Three entries from above, tab-delimited.
Structure (SMILES)	% of control remaining [%]
COc1ccc(S(=O)(=O)N(CC(=O)N2CCc3ccccc3C2)C2CCCCC2)cc1Cl [CBK268525]	95.1489
CC(=O)Nc1ccc(CNC(=O)c2ccc(C(F)(F)F)cn2)cc1 [CBK252121]	129.902
NCc1cnc2c(c1)CCC2 [CBK018584G]	99.8781

Continued:

Structure (SMILES) | % of control remaining [%]
CCOc1cc(/C=C2/NC(=O)N(c3ccccc3)C2=O)cc(Cl)c1OCc1cccc(C(=O)O)c1 [CBK265160] | 136.791
Cc1ccc(-c2ccc(/C=C/c3cc(C(F)(F)F)nc(=O)[nH]3)o2)cc1Cl [CBK018169] | 115.246
CC1(C)[C@H](Cc2cc(COc3ccccc3)on2)C[C@@H]1NC1CCOCC1 [CBK289694] | 140.055
CCc1nc2ccc(C(=O)N(C)CCN(C)C)cn2c1N(C)C(=O)C1CCCCC1 [CBK145771] | 118.463
C(=C\c1ccccc1)/CN1CCN(C2CCN(CCc3ccccc3)CC2)CC1 [CBK261923] | 94.4148
O=C(NCc1c(Cl)cccc1Cl)N1CCN(c2ccccc2)CC1 [CBK155194] | 98.4265
C=CCNC1OC(CO)C(O)C(O)C1O (stereo not shown) [CBK261357] | 100
N#Cc1cccc(CN2CCCC3(CCN(C(=O)Cc4c[nH]c5ccccc45)C3)C2)c1 (stereo not shown) [CBK132032] | 112.538
O=c1[nH]c2ncc(-c3cccc(-c4ccccc4)c3)nc2n1Cc1ccccc1 [CBK064252] | 160.994
Cn1ccc(CN2CCOC(c3nc(C(C)(C)C)n[nH]3)C2)cc1=O (stereo not shown) [CBK304495] | 130.099
Cc1cc(NS(=O)(=O)c2c(C)nn(C)c2Cl)n(C)n1 [CBK067245] | 120.985
CCn1cc(S(=O)(=O)Nc2ccc3c(ccn3C)c2)c(C)n1 [CBK282818] | 103.904
Cn1c(=O)c2c(nc(CN3CCN(C(=O)c4ccco4)CC3)n2Cc2ccccc2)n(C)c1=O [CBK269437] | 117.919
CC(=O)c1sc(NC(=O)Cc2ccc(C)cc2)nc1C [CBK287760] | 117.192
O=C(C1CN(S(=O)(=O)c2ccccc2)CCN1S(=O)(=O)c1ccccc1)N1CCCCC1 (stereo not shown) [CBK262686] | 128.77
CC(C)S(=O)(=O)N1C[C@@H](c2ccccc2)[C@H]2[C@H]1CCCCCN2C [CBK283083] | 135.741
O=C(Cc1ccc(F)cc1)N1CCCC(c2nccnc2-c2cccc(C(F)(F)F)c2)C1 (stereo not shown) [CBK286210] | 101.334
O=C(O)c1ccc(Oc2cccc([N+](=O)[O-])c2)cc1C(=O)O [CBK261179] | 96.9913
COCCn1c(C)cc(C(=O)CSc2cc(C)c3ccccc3n2)c1C [CBK266437] | 111.982
COc1ccccc1CNCc1ccccn1 [CBK262261] | 135.377
NC(=O)c1cccc(-c2cnc(N)c(NC3CCOCC3)n2)c1 [CBK063836] | 119.505
CC(C)c1ccc(/C=C/C(=O)NCC2COc3ccccc3O2)cc1 (stereo not shown) [CBK149619] | 76.5448
O=C(Cn1ncc2cccn2c1=O)Nc1ccc(F)cc1 [CBK283672] | 100.269
COCCN1CCCC(NC(C)c2ccc(OC)c(F)c2)C1 (stereo not shown) [CBK305099] | 123.088
Cc1ccc(S(=O)(=O)NCC(=O)N2CCN(c3ccc(Cl)cc3)CC2)cc1 [CBK091315] | 128.575
CS(=O)(=O)N1CCC(C(=O)NNC(=S)Nc2cccc3ccccc23)CC1 [CBK266811] | 128.85
O=C1COc2ccccc2C/C=C/CC2(CCCNC2)CN1 (stereo not shown) [CBK292029] | 125.883

Structure (SMILES) | % of control remaining [%]
O=C(NNC(=O)c1ccc2c(c1)C(=O)N(Cc1ccco1)C2=O)c1cccnc1 [CBK267403] | 122.372
CNC(=O)c1ccc(-c2ccc(CNC(=O)C3(c4cccc(F)c4)CCCC3)cc2)nc1C [CBK286013] | 89.6051
CC1(C)Cc2ccccc2C(NCCC(=O)O)=N1 [CBK023412] | 121.338
Cc1oc(NC(=O)CN2CCN(c3ccccc3)CC2)c(C#N)c1C [CBK306044] | 144.929
CN1C(CC(O)c2ccccc2)CCCC1C(=O)c1ccccc1 (stereo not shown) [CBK268467C] | 82.4974
Cc1ccccc1NC(=O)Cn1c(=O)n(CC(=O)Nc2ccccc2C)c2ccccc21 [CBK266938] | 153.27
O=C(NCCNCc1ccco1)c1ccc(F)cc1 [CBK266873G] | 80.4626
Nc1ncc(-c2ccc(C(F)(F)F)cc2)c(C2CCCN(C(=O)CN3CCCC3)C2)n1 (stereo not shown) [CBK285649] | 134.745
COCCNc1nc(-c2cccc3ccccc23)cnc1N [CBK063574] | 130.359
COCCN1CCn2c(nc3cc(NC(=O)c4ccccc4)ccc32)C1 [CBK307410] | 116.007
CN1C(=O)C2(N=C(N)NC(Nc3ccc(F)cc3)=N2)c2ccccc21 (stereo not shown) [CBK270285] | 120.495
CC(NC(=O)C1(Cn2ccnc2)CC1)c1nc(-c2ccccn2)no1 (stereo not shown) [CBK307514] | 95.724
CCN(CC)C(=O)C1CCCN(C(=O)NCCN2CCOCC2)C1 (stereo not shown) [CBK156128] | 116.507
N[C@H](CCc1nc2ccccc2[nH]1)C(=O)O [CBK172614] | 109.669
CCOc1cc(NC2CCN(C(=O)CC3CCCCC3)CC2)ncn1 [CBK305506] | 85.5091
CSc1nc(O)c(C(c2cccc([N+](=O)[O-])c2)c2c(O)nc(SC)nc2O)c(O)n1 [CBK265370] | 100
CCOc1ccc(CN(C)C(=O)Nc2cc(C)on2)cc1 [CBK306216] | 111.447
CCNC(=O)/N=C(\N)Nc1nc2ccccc2s1 [CBK028890] | 133.818
COC(=O)c1c(NC(=S)Nc2ccc(Br)cn2)sc2c1CCC2 [CBK266862] | 147.034
O=C(NCc1ccc(Cl)c(Cl)c1)N1CCN(c2cc(C(F)(F)F)ccn2)CC1 [CBK156434] | 86.8576
Cc1cccc2c(=O)nc(-c3ccccc3Cl)oc12 [CBK152422] | 111.005
CN1CCC(OC(=O)COc2ccc(Cl)cc2Cl)CC1 [CBK266389C] | 96.4727
COc1ccc2[nH]cc(CCNC(=O)c3cccnc3)c2c1 [CBK122722] | 200.292
O=S1(=O)CCN(Cc2cn(-c3ccc(-c4ccccc4)cc3)nn2)CC1 [CBK113105] | 108.055
COc1cc(OC)nc(C(NC(=O)C2CCN(CCN3C(=O)c4ccccc4C3=O)CC2)c2ccc(F)cc2)n1 (stereo not shown) [CBK148083] | 81.9761
